Experimental data published in article PMC11811199.
No constants are given. Whether binding was seen depends on the method and setting. Binding seen in cells or lysates may run through a third protein. Some binding calls cover weakened binding; strength is not graded here. Tags and fused reporters may be left off the sequences shown.

Biological target: T1, Flag-IRF3 (UniProt Q14653)
T1 sequence: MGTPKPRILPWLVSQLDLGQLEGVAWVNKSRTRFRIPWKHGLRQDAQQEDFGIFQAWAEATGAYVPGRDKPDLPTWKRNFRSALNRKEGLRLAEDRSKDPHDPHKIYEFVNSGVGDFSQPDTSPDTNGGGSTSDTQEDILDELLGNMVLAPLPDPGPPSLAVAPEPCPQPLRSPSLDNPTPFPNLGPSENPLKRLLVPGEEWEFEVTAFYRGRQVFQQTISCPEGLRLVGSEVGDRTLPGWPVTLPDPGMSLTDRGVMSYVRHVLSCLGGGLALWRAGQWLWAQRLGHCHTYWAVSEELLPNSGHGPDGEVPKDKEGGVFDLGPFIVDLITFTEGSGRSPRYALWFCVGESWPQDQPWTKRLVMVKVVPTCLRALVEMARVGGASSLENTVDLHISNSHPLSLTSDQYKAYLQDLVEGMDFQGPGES
Assay: co-IP

binding: binds
B1: HA-TBK1 (protein, UniProt Q9UHD2 1-729)
chain: MQSTSNHLWLLSDILGQGATANVFRGRHKKTGDLFAIKVFNNISFLRPVDVQMREFEVLKKLNHKNIVKLFAIEEETTTRHKVLIMEFCPCGSLYTVLEEPSNAYGLPESEFLIVLRDVVGGMNHLRENGIVHRDIKPGNIMRVIGEDGQSVYKLTDFGAARELEDDEQFVSLYGTEEYLHPDMYERAVLRKDHQKKYGATVDLWSIGVTFYHAATGSLPFRPFEGPRRNKEVMYKIITGKPSGAISGVQKAENGPIDWSGDMPVSCSLSRGLQVLLTPVLANILEADQEKCWGFDQFFAETSDILHRMVIHVFSLQQMTAHKIYIHSYNTATIFHELVYKQTKIISSNQELIYEGRRLVLEPGRLAQHFPKTTEENPIFVVSREPLNTIGLIYEKISLPKVHPRYDLDGDASMAKAITGVVCYACRIASTLLLYQELMRKGIRWLIELIKDDYNETVHKKTEVVITLDFCIRNIEKTVKVYEKLMKINLEAAELGEISDIHTKLLRLSSSQGTIETSLQDIDSRLSPGGSLADAWAHQEGTHPKDRNVEKLQVLLNCMTEIYYQFKKDKAERRLAYNEEQIHKFDKQKLYYHATKAMTHFTDECVKKYEAFLNKSEEWIRKMLHLRKQLLSLTNQCFDIEEEVSKYQEYTNELQETLPQKMFTASSGIKHTMTPIYPSSNTLVEMTLGMKKLKEEMEGVVKELAENNHILERFGSLTMDGGLRNVDCL
